Data as given in PMC6344896.
The exact form of at least one protein or probe is not confirmed. For part of these data: At least one verdict was read from the data and is not stated in words by the source.

Chains of the proteins cited; added tags and fusions are not shown. Residues count along the entry.
UniProt Q15717, 1-186: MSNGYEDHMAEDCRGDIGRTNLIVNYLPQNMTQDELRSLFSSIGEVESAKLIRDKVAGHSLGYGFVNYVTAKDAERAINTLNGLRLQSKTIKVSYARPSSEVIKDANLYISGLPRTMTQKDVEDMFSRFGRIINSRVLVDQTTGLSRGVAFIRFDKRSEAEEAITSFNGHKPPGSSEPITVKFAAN
UniProt Q15717, whole entry W261E: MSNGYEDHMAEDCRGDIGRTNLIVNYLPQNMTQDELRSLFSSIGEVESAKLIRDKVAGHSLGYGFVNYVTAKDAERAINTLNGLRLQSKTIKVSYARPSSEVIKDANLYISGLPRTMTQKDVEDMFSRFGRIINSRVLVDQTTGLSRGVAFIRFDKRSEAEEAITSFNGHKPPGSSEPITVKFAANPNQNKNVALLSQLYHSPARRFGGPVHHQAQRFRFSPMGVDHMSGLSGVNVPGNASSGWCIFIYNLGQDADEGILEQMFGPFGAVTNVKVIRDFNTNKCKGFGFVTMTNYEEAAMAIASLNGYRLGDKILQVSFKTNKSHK

What was measured:
HuR RRM1,2 (human) [1] = target: HuR RRM1,2 (human) (UniProt Q15717); test: NMR; conditions: 1:1.1; NMR: 20 mM sodium phosphate pH 7.0, 200 mM NaCl, 5 mM DTT, 1 mM EDTA, 298 K; recombinant protein; residues 1-186; protein details: pETM11 His6, cleaved
HuR RRM1,2 (human) [2] = target: HuR RRM1,2 (human) (UniProt Q15717); test: ITC; conditions: n=0.9; ITC: 50 mM sodium phosphate pH 7.0, 200 mM NaCl, 2 mM beta-mercaptoethanol, 298 K; recombinant protein; residues 1-186; protein details: pETM11 His6, cleaved
HuR W261E (human) = HuR W261E (human) (UniProt Q15717); test: SEC-SAXS; conditions: more compact when bound; recombinant protein; residues 1-326; protein details: untagged (tag cleaved)

AUUUUUAUUUUA [AU12]
binding result (HuR RRM1,2 (human) [1]): binds

AUUUUUAUUUUAUUUUU [AU17]
Kd (HuR RRM1,2 (human) [2]): 215 nM | binding result (HuR W261E (human)): binds
